Values from PubChem BioAssay AID686937 (Drosophila RNAi Screening Center, 2013).
Assay: 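Genes in the fly needed for secretion of protein constitutively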 (primary screen). System: Drosophila S2 cells expressing secreted horseradish peroxidase. Reagent: long dsRNA against Drosophila genes. Time to read-out: about 5.5 days (5 days dsRNA, then 12 h reporter induction). Challenge: reporter expression induced after 5 days of dsRNA, read 12 h later; inducer not stated. Measurement: 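After 5 days of dsRNA and 12 h of reporter induction, medium peroxidase read by chemiluminescence and scored as per-plate z-score; higher values mean more reporter released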. Direction: z-score: higher = more reporter secreted into medium.
The deposit covers about 23,000 reagents; shown is an unselected part of those that have a named target and a result. 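Reduced-secretion tags in replicate 1 do not always agree with the z-scores; no criterion for assigning the tags was given.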 Reagents against one gene are numbered here. A plus sign joins genes that one reagent is predicted to hit. Not all columns of the deposit are shown. Not given: the amount of reagent.

no.	gene	reagent no.	z-score, replicate 1	z-score, replicate 2
1	kappaTry (GeneID 36215)	1	0.29	0.26
2	CG32373 (GeneID 318000)	1	0.24	0.47
3	bug (GeneID 36749)	1	0.43	0.35
4	Spps (GeneID 42882)	1	0.39	-0.03
5	CG4230 (GeneID 33743)	1	0.09	0.32
6	mdlc (GeneID 42397)	1	-0.57	-0.28
7	CG11951 (GeneID 43463)	1	0.29	0.33
8	Ptp61F (GeneID 38160)	1	0.59	0.34
9	mAcon1 (GeneID 44149)	1	0.75	0.44
10	CG7376 (GeneID 38715)	1	0.15	0.3
11	CG8204 (GeneID 36728)	1	0.24	-0.14
12	Sin3A (GeneID 36382)	1	-1.91	-2.68
13	shps (GeneID 42892)	1	0.28	0.22
14	14-3-3epsilon (GeneID 42186)	1	0.19	-0.03
15	CG11178 (GeneID 32315)	1	0.54	0.38
16	Rsph9 (GeneID 318950)	1	-0.31	0.32
17	CG15253 (GeneID 34916)	1	0.18	0.36
18	arx (GeneID 40061)	1	0.23	0.19
19	CdGAPr (GeneID 35267)	1	0.32	0.42
20	l(2)SH0834 (GeneID 34386)	1	-0.24	-0.44
21	pum (GeneID 41094)	1	0.4	0.45
22	pum (GeneID 41094)	2	-0.31	0.27
23	pum (GeneID 41094)	3	0.59	-0.43
24	pum (GeneID 41094)	4	-0.14	0.36
25	pum (GeneID 41094)	5	0.25	0.34
26	pum (GeneID 41094)	6	-0.85	-0.99
27	RhoBTB (GeneID 40249)	1	0.16	0.24
28	CG32198 (GeneID 317909)	1	0.35	0.34
29	CG6420 (GeneID 43218)	1	0.48	0.14
30	spn-F (GeneID 43700)	1	-0.24	-1.25
31	CG9184 (GeneID 38152)	1	0.47	0.75
32	CG9184 (GeneID 38152)	2	-0.42	0.05
33	Prp4k (GeneID 38032)	1	0.43	-0.16
34	Zn72D (GeneID 39764)	1	0.08	0.04
35	CG32264 (GeneID 38438)	1	-1.59	-0.96
36	CG32264 (GeneID 38438)	2	0.4	0.32
37	CG32264 (GeneID 38438)	3	0.34	0.29
38	CG32264 (GeneID 38438)	4	-0.64	0.31
39	CG32264 (GeneID 38438)	5	-1.4	-1.46
40	CG15382 (GeneID 33391)	1	0.28	-0.25
41	CG18081 (GeneID 39725)	1	0.07	0.22
42	CG8852 (GeneID 33577)	1	0.15	0.28
43	AstA-R1 (GeneID 44126)	1	-1.96	-0.71
44	AstA-R1 (GeneID 44126)	2	0.33	-0.01
45	Ddx1 (GeneID 40457)	1	0.2	0.42
46	CG8768 (GeneID 36400)	1	0.41	0.38
47	CG31960 (GeneID 319047)	1	-0.01	-0.18
48	AspRS (GeneID 36420)	1	-0.15	-0.13
49	CG13947 (GeneID 33250)	1	-0.24	-0.13
50	gsb-n (GeneID 38004)	1	0.3	
51	gsb-n (GeneID 38004)	2	0.26	-0.2
52	CG33124 (GeneID 318891)	1	0.12	0.32
53	CG43327 + CG43328	1	0.29	0.48
54	CG31533 (GeneID 318788)	1	0.07	0.49
55	NimB1 (GeneID 34813)	1	0.43	0.35
56	l(3)87Df (GeneID 49762)	1	0.45	0.73

Targets listed so far whose gene name starts with S or s (4):
gene	reagent no.	z-score, replicate 1	z-score, replicate 2
Spps (GeneID 42882)	1	0.39	-0.03
Sin3A (GeneID 36382)	1	-1.91	-2.68
shps (GeneID 42892)	1	0.28	0.22
spn-F (GeneID 43700)	1	-0.24	-1.25
